PubChem BioAssay AID1159584, Peter MacCallum Cancer Centre | 2016
Aim: 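Genes whose loss is lethal only together with E-cadherin loss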 (primary screen). System: human MCF10A breast epithelial cells, parental and CDH1-null. Reagents: siRNA against human genes. Measurement: 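ATP luminescence (CellTiter-Glo) viability per line relative to mean mock wells over all plates, and the ratio of CDH1-null to parental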. Reading the numbers: CDH1-null / parental viability ratio: higher = CDH1-null cells survive relatively better than parental; CDH1-null viability vs mock: higher = more viable CDH1-null cells; parental viability vs mock: higher = more viable parental cells.
This is a random part of about 18,000 reagents tested. The record does not give: the amount of reagent, the time to read-out.

no.	gene	CDH1-null / parental viability ratio	CDH1-null viability vs mock (fraction of mock)	parental viability vs mock (fraction of mock)
1	FAM187B (GeneID 148109)	0.92	1.08	1.17
2	TEKT1 (GeneID 83659)	1.21	1.04	0.86
3	DRAM1 (GeneID 55332)	0.87	0.88	1.01
4	ACKR2 (GeneID 1238)	1.08	0.85	0.79
5	ASB16-AS1 (GeneID 339201)	0.98	0.8	0.82
6	CAPZA1 (GeneID 829)	1.06	0.83	0.78
7	OTUD6B (GeneID 51633)	1.37	0.48	0.35
8	HERC5 (GeneID 51191)	0.99	0.8	0.81
9	SLC39A11 (GeneID 201266)	1.22	0.56	0.46
10	WFDC10B (GeneID 280664)	1.22	0.9	0.74
11	CDK17 (GeneID 5128)	1.04	0.85	0.82
12	DNAJB2 (GeneID 3300)	1.22	0.9	0.74
13	KIFC3 (GeneID 3801)	0.71	0.6	0.84
14	CENPL (GeneID 91687)	1.11	0.88	0.79
15	SPATA8 (GeneID 145946)	1.24	1.08	0.87
16	AAGAB (GeneID 79719)	0.79	0.6	0.76
17	GALM (GeneID 130589)	1.08	1	0.93
18	CLXN (GeneID 79645)	1.32	0.75	0.57
19	CCL3L3 (GeneID 414062)	0.82	0.56	0.68
20	HOMER3 (GeneID 9454)	1.39	0.75	0.54
21	ART4 (GeneID 420)	0.91	0.88	0.97
22	IL12RB2 (GeneID 3595)	0.82	0.68	0.83
23	ABHD17AP1 (GeneID 728917)	1.19	1.14	0.96
24	KRT10 (GeneID 3858)	1.28	0.64	0.5
25	PPP1R13B (GeneID 23368)	1.37	0.92	0.67
26	TXNL4B (GeneID 54957)	1.2	1.06	0.88
27	ARID3A (GeneID 1820)	0.98	0.82	0.84
28	ZSCAN5B (GeneID 342933)	0.99	0.85	0.86
29	UBE2J1 (GeneID 51465)	1	0.86	0.86
30	RABGAP1L (GeneID 9910)	0.77	0.72	0.93
31	CDC42SE2 (GeneID 56990)	0.87	1.02	1.17
32	COXFA4L3 (GeneID 84419)	0.9	0.57	0.63
33	SUPT6H (GeneID 6830)	1.17	0.56	0.48
34	BMP2 (GeneID 650)	1.13	0.86	0.76
35	CSF2RB (GeneID 1439)	1.19	0.94	0.79
36	CLSTN1 (GeneID 22883)	0.95	0.73	0.77
37	CYP4F8 (GeneID 11283)	1.1	0.95	0.86
38	MS4A13 (GeneID 503497)	1.14	0.74	0.65
39	BRMS1L (GeneID 84312)	0.82	0.5	0.61
40	TTC29 (GeneID 83894)	0.98	1.02	1.04
41	BTBD16 (GeneID 118663)	0.92	0.74	0.8
42	PLEC (GeneID 5339)	1.01	0.78	0.77
43	METTL2B (GeneID 55798)	0.99	0.91	0.92
44	STN1 (GeneID 79991)	0.96	0.82	0.85
45	SFXN3 (GeneID 81855)	0.9	0.79	0.88
46	H2AC15 (GeneID 8330)	0.77	0.61	0.79
47	C4B (GeneID 721)	0.88	0.45	0.51
48	IFNA1 (GeneID 3439)	1.45	0.93	0.64
49	P2RX6 (GeneID 9127)	1.29	0.98	0.76
50	ZFP91 (GeneID 80829)	0.75	0.68	0.91
51	ACADVL (GeneID 37)	0.97	1.01	1.04
52	HPF1 (GeneID 54969)	1.32	0.82	0.62
53	GTF2IRD1 (GeneID 9569)	0.87	0.88	1.01
54	AFAP1L1 (GeneID 134265)	0.86	0.76	0.88
55	KAT2B (GeneID 8850)	1	1.04	1.04
56	KRTAP3-3 (GeneID 85293)	0.68	0.68	1
57	DNAI3 (GeneID 126820)	0.93	0.92	0.99
58	OR11A1 (GeneID 26531)	1.12	1.29	1.15
59	TAS2R38 (GeneID 5726)	1.21	0.74	0.61
60	LITAF (GeneID 9516)	0.84	0.58	0.69
61	PRSS54 (GeneID 221191)	1.18	1.16	0.98
62	ATCAY (GeneID 85300)	0.84	0.8	0.95
63	GMPPB (GeneID 29925)	1.14	1.08	0.95
64	EBF3 (GeneID 253738)	1.19	1.02	0.86
65	EFCAB3 (GeneID 146779)	0.94	0.9	0.96
66	PAK4 (GeneID 10298)	1.01	0.85	0.84
67	KRTAP9-4 (GeneID 85280)	1.19	0.88	0.74
68	DLGAP3 (GeneID 58512)	1.3	0.96	0.74

9 consecutive entries from above, quoted:
no.	gene	CDH1-null / parental viability ratio	CDH1-null viability vs mock (fraction of mock)	parental viability vs mock (fraction of mock)
40	TTC29 (GeneID 83894)	0.98	1.02	1.04
41	BTBD16 (GeneID 118663)	0.92	0.74	0.8
42	PLEC (GeneID 5339)	1.01	0.78	0.77
43	METTL2B (GeneID 55798)	0.99	0.91	0.92
44	STN1 (GeneID 79991)	0.96	0.82	0.85
45	SFXN3 (GeneID 81855)	0.9	0.79	0.88
46	H2AC15 (GeneID 8330)	0.77	0.61	0.79
47	C4B (GeneID 721)	0.88	0.45	0.51
48	IFNA1 (GeneID 3439)	1.45	0.93	0.64
